Source: PMC9879991, “Biomolecular condensates formed by designer minimalistic peptides” (Nature Communications, 2023)

Assay: NaCl-induced 13C chemical shift changes of WGR-1 at 5 and 20 mM
[1] = 5 mM, with and without 100mM NaCl, pH 8, 300 K
[2] = 20mM peptide, first average column (high)
[3] = 20mM peptide, second average column (low)
[4] = 20 mM, with and without 100mM NaCl, pH 8, 300 K

Sequence: WGRGRGRGWPGVGY [WGR-1]
- Δδ* C' W9m (δ 175.29 ppm) [1]: -1 Hz
- Δδ* C' Y14 (δ 180.27 ppm) [1]: 4.25 Hz
- Δδ* C=NH R (δ 159.27 ppm) [1]: 0.33 Hz
- Δδ* C=NH R (δ 159.35 ppm) [1]: 0.35 Hz
- Δδ* C=NH R (δ 159.48 ppm) [1]: 0 Hz
- Average Δδ* [Hz], aa P (20mM peptide, average over all P positions): 6.93 Hz
- Average Δδ* [Hz], aa R (20mM peptide, average over all R positions): 5.64 Hz
- Average Δδ* [Hz], aa V (20mM peptide, average over all V positions): 5.66 Hz
- Average Δδ* [Hz], aa Y (20mM peptide, average over all Y positions): 5.15 Hz
- Average Δδ* [Hz], aa W1 [2]: 6.85 Hz
- Average Δδ* [Hz], aa W9 [2]: 6.12 Hz
- Average Δδ* [Hz], aa W1 [3]: 6.49 Hz
- Average Δδ* [Hz], aa W9 [3]: 5.86 Hz
- Δδ* 13Cα P (δ 63.22 ppm) [4]: 14.01 Hz
- Δδ* 13Cα Pm (δ 63.54 ppm) [4]: 6.3 Hz
- Δδ* 13Cα R3,5 (δ 56.3 ppm) [4]: 7.61 Hz
- Δδ* 13Cα R7 (δ 56.38 ppm) [4]: 4.08 Hz
- Δδ* 13Cα R7m (δ 56.59 ppm) [4]: 3.9 Hz
- Δδ* 13Cα V (δ 62.39 ppm) [4]: 5.96 Hz
- Δδ* 13Cα Vm (δ 62.17 ppm) [4]: 5.62 Hz
- Δδ* 13Cα Y (δ 59.11 ppm) [4]: 3.26 Hz
- Δδ* 13Cβ P (δ 32.77 ppm) [4]: 4.16 Hz
- Δδ* 13Cβ R (δ 30.45 ppm) [4]: 6.96 Hz
- Δδ* 13Cβ R (δ 30.51 ppm) [4]: 5.28 Hz
- Δδ* 13Cβ R (δ 30.65 ppm) [4]: 2.79 Hz
- Δδ* 13Cβ R (δ 30.69 ppm) [4]: 3.02 Hz
- Δδ* 13Cβ V (δ 32.84 ppm) [4]: 3.67 Hz
- Δδ* 13Cβ Vm (δ 33.02 ppm) [4]: 8.52 Hz
- Δδ* 13Cβ W1 (δ 32.03 ppm) [4]: -18.16 Hz
- Δδ* 13Cβ W9 (δ 31.85 ppm) [4]: 5.7 Hz
- Δδ* 13Cβ W9m (δ 29.06 ppm) [4]: 5.62 Hz
- Δδ* 13Cβ Y (δ 39.36 ppm) [4]: 4.3 Hz
- Δδ* 13Cβ Ym (δ 39.38 ppm) [4]: 4.16 Hz
- Δδ* 13Cγ P (δ 27.2 ppm) [4]: 4.88 Hz
- Δδ* 13Cγ Pm (δ 24.15 ppm) [4]: 6.35 Hz
- Δδ* 13Cγ R (δ 26.78 ppm) [4]: 7.01 Hz
- Δδ* 13Cγ R (δ 26.86 ppm) [4]: 6.4 Hz
- Δδ* 13Cγ R (δ 26.94 ppm) [4]: 6.95 Hz
- Δδ* 13Cγ R (δ 27.02 ppm) [4]: 6.44 Hz
- Δδ* 13Cγ V (δ 20.35 ppm) [4]: 5.27 Hz
- Δδ* 13Cγ V (δ 21.07 ppm) [4]: 5.92 Hz
- Δδ* 13Cγ Vm (δ 20.01 ppm) [4]: 5.68 Hz
- Δδ* 13Cγ Vm (δ 21.04 ppm) [4]: 5.65 Hz
- Δδ* 13Cγ W9 (δ 111.35 ppm) [4]: 6.6 Hz
- Δδ* 13Cγ W9m (δ 110.77 ppm) [4]: 7.14 Hz
- Δδ* 13Cγ Y (δ 131.83 ppm) [4]: 8.01 Hz
- Δδ* 13Cγ Ym (δ 131.82 ppm) [4]: 8.52 Hz
- Δδ* 13Cδ1 W1 (δ 127.53 ppm) [4]: 12.19 Hz
- Δδ* 13Cδ1 W9 (δ 127.28 ppm) [4]: 5.75 Hz
- Δδ* 13Cδ1 W9m (δ 127.44 ppm) [4]: 5.68 Hz
- Δδ* 13Cδ2 W1 (δ 129.58 ppm) [4]: 2.91 Hz
- Δδ* 13Cδ2 W9 (δ 129.49 ppm) [4]: 5.33 Hz
- Δδ* 13Cδ2 W9m (δ 129.36 ppm) [4]: 5.8 Hz
- Δδ* 13Cδ P (δ 50.74 ppm) [4]: 6.64 Hz
- Δδ* 13Cδ Pm (δ 49.84 ppm) [4]: 5.09 Hz
- Δδ* 13Cδ R (δ 43.08 ppm) [4]: 7.26 Hz
- Δδ* 13Cδ R (δ 43.14 ppm) [4]: 7.32 Hz
- Δδ* 13Cδ R (δ 43.23 ppm) [4]: 7.61 Hz
- Δδ* 13Cδ R (δ 43.27 ppm) [4]: 7.9 Hz
- Δδ* 13Cδ R (δ 43.29 ppm) [4]: 7.43 Hz
- Δδ* 13Cδ Y (δ 133.26 ppm) [4]: 4.89 Hz
- Δδ* 13Cε2 W1 (δ 138.94 ppm) [4]: 5.13 Hz
- Δδ* 13Cε2 W9 (δ 138.75 ppm) [4]: 5.09 Hz
- Δδ* 13Cε2 W9m (δ 138.88 ppm) [4]: 4.89 Hz
- Δδ* 13Cε W1 (δ 121 ppm) [4]: 4.72 Hz
- Δδ* 13Cε W9 (δ 120.8 ppm) [4]: 7.02 Hz
- Δδ* 13Cε W9m (δ 120.71 ppm) [4]: 6.22 Hz
- Δδ* 13Cε Y (δ 117.99 ppm) [4]: 6.47 Hz
- Δδ* 13Cε Ym (δ 118.15 ppm) [4]: 4.69 Hz
- Δδ* 13Cζ2 W1 (δ 114.61 ppm) [4]: 6.97 Hz
- Δδ* 13Cζ2 W9 (δ 114.66 ppm) [4]: 5.73 Hz
- Δδ* 13Cζ3 W (δ 122 ppm) [4]: 8.47 Hz
- Δδ* 13Cζ3 W (δ 122.16 ppm) [4]: 5.9 Hz
- Δδ* 13Cζ Y (δ 156.97 ppm) [4]: 2.52 Hz
- Δδ* 13Cζ Ym (δ 156.99 ppm) [4]: 2.29 Hz
- Δδ* 13Cη2 W1 (δ 124.62 ppm) [4]: 7.59 Hz
- Δδ* 13Cη2 W9 (δ 124.69 ppm) [4]: 6.07 Hz
- Δδ* 13Cη2 W9m (δ 124.82 ppm) [4]: 5.16 Hz
- Δδ* C' Gm (δ 172.8 ppm) [4]: 6.98 Hz
- Δδ* C' Gm (δ 172.83 ppm) [4]: 6.68 Hz
- Δδ* C' Gm (δ 172.997 ppm) [4]: 4.41 Hz
- Δδ* C' P10 (δ 177.11 ppm) [4]: 7.28 Hz
- Δδ* C' R (δ 176.71 ppm) [4]: 5.32 Hz
- Δδ* C' R (δ 176.73 ppm) [4]: 5.57 Hz
- Δδ* C' R (δ 176.78 ppm) [4]: 3.79 Hz
- Δδ* C' R (δ 176.88 ppm) [4]: 4.78 Hz
- Δδ* C' V (δ 176.4 ppm) [4]: 5.83 Hz
- Δδ* C' Vm (δ 176.31 ppm) [4]: 6.5 Hz
- Δδ* C' W9 (δ 174.7 ppm) [4]: 7.02 Hz
- Δδ* C' W9m (δ 175.25 ppm) [4]: 2.78 Hz
- Δδ* C' Y14 (δ 180.27 ppm) [4]: 7.09 Hz
- Δδ* C=NH R3+5 (δ 159.46 ppm) [4]: 4.96 Hz
- Δδ* C=NH R7 (δ 159.34 ppm) [4]: 4.92 Hz
- Δδ* C=NH R7m (δ 159.26 ppm) [4]: 5.1 Hz

No end group written: not given here.
